Paper PMC3972672
Results are given in words; binding and its absence hold for the method and conditions named. Binding seen in cells or lysates may run through a third protein.

Protein sequences, listed by entry. Tags and fused reporters are not part of them. Residues count along the entry.
UniProt P25445, residues 26-335: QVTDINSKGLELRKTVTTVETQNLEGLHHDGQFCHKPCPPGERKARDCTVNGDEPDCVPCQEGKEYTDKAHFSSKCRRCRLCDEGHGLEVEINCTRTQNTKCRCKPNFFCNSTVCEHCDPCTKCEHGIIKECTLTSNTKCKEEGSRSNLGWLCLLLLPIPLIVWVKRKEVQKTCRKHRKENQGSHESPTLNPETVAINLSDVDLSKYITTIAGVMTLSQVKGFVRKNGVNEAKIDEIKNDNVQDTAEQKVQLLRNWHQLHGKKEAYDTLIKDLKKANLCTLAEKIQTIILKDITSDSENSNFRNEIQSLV
UniProt Q14790: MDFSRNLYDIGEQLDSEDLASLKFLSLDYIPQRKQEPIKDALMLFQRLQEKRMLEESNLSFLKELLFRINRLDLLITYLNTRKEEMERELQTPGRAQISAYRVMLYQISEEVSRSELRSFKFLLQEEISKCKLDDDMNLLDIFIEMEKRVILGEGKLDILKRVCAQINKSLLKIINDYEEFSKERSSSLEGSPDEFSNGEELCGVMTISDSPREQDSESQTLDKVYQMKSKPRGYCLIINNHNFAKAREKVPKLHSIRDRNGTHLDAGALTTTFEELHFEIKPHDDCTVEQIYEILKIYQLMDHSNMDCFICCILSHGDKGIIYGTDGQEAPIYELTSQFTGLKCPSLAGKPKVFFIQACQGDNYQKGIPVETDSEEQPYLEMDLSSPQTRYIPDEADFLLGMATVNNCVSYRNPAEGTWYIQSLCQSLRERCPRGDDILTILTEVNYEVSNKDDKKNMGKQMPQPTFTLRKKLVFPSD
UniProt Q13158: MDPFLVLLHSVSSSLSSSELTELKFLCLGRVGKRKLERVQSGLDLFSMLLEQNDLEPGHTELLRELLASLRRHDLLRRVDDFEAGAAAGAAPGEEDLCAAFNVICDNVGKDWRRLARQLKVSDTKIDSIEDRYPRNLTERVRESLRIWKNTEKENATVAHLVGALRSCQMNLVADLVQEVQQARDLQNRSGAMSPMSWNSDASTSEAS

Biological target: CD95 (Fas/APO-1) (human (endogenous in SKW6.4)) (UniProt P25445)
Assay: condition: only cells left untreated (without LZ-CD95L); co-IP; as a1 but SKW6.4 cells left untreated (no LZ-CD95L); Western blot

| binding | Substance |
| --- | --- |
| no binding | procaspase-8 (from UniProt Q14790 1-479) (enzyme) |
| no binding | FADD (from UniProt Q13158 1-208) |
